Values from PubChem BioAssay AID743121 (NCATS, 2013).
Screen: 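Knock-downs that sensitise breast cancer cells to camptothecin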 (primary screen). System: MDA-MB-231 cells, a human breast cancer line. Reagent: single siRNA against human genes, 20 nM siRNA (0.8 pmol per well). Timing: 120 h (drug added 48 h after transfection, read 72 h later). Treatment: camptothecin 20 nM (about EC30) for 72 h; vehicle 0.1% DMSO in parallel plates. Measured: 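CellTiter-Glo ATP signal, scaled to control siRNA as percent viability; sensitisation given as log2 of untreated divided by camptothecin-treated viability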. Direction: log2 vehicle/camptothecin viability: higher = stronger sensitisation to camptothecin; viability with camptothecin: higher = more viable cells. Call rule: 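Each gene scored by redundant siRNA activity (RSA) over its individual siRNA ratios; a gene is called active at p < 0.001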.
Here is an unselected part of about 26,000 deposited reagents. 167 of them (0.63%) were called active. 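Calls are per gene from RSA p-values that are not deposited; an individual active-marked siRNA can sensitise only weakly.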 A number with no mark means an inactive call. The numbers tell different reagents against one gene apart. Not all columns of the deposit are shown.

NR3C2 #1
- log2 vehicle/camptothecin viability: -0.291
- viability with camptothecin (% of control): 88.6

NR3C2 #2
- log2 vehicle/camptothecin viability: -0.348
- viability with camptothecin (% of control): 83.6

NR3C2 #3
- log2 vehicle/camptothecin viability: 0.024
- viability with camptothecin (% of control): 80.6

GPC1 #1
- log2 vehicle/camptothecin viability: 0.343
- viability with camptothecin (% of control): 10.8

GPC1 #2
- log2 vehicle/camptothecin viability: -0.142
- viability with camptothecin (% of control): 42.6

GPC1 #3
- log2 vehicle/camptothecin viability: 0.147
- viability with camptothecin (% of control): 65.5

GPC1 #4
- log2 vehicle/camptothecin viability: -0.262
- viability with camptothecin (% of control): 82.9

Just “log2 vehicle/camptothecin viability”, for 2 of the entries above:
NR3C2 #3: 0.024
GPC1 #1: 0.343

The listing continues.
NCOA3 #1
- log2 vehicle/camptothecin viability: -0.514
- viability with camptothecin (% of control): 78.6

NCOA3 #2
- log2 vehicle/camptothecin viability: 0.639
- viability with camptothecin (% of control): 32.6

NCOA3 #3
- log2 vehicle/camptothecin viability: 0.525
- viability with camptothecin (% of control): 34.7

EEF1E1 #1
- log2 vehicle/camptothecin viability: -0.00179
- viability with camptothecin (% of control): 107

EEF1E1 #2
- log2 vehicle/camptothecin viability: 0.0422
- viability with camptothecin (% of control): 40.4

EEF1E1 #3
- log2 vehicle/camptothecin viability: -0.124
- viability with camptothecin (% of control): 104

EEF1E1 #4
- log2 vehicle/camptothecin viability: -0.427
- viability with camptothecin (% of control): 102
